HELM strings list residues between dots; [ac] is acetyl, [am] amide, other brackets name non-standard units. Non-standard residues stand in square brackets, D forms with d. *: point of attachment. pGlu = O=C1CC[C@@H](C(=O)O)N1; Cbz = O=C(OCc1ccccc1)*; Boc = CC(C)(C)OC(=O)*; OtBu = CC(C)(C)O*

The nature of this series: general procedure: solution-phase peptide synthesis; DCC/HONB (ONB active esters).

As to Cbz-AK(Boc)SQG[dA]SN-OtBu, the step yield (coupling step) turned out to be 82%.

Cbz-AK(Boc)SQG[dL]SN-OtBu returned a step yield (coupling step) of 72%. The substance Cbz-AK(Boc)SQ[dA]GSN-OtBu had a step yield (coupling step) of 87%.

The substance Cbz-AK(Boc)SQ[dF]GSN-OtBu gave a step yield (coupling step) of 86.3%.

Cbz-AK(Boc)SQ[dL]GSN-OtBu yielded a step yield (coupling step) of 77.2%. Same read-out and setting: under Cbz-AK(Boc)SQ[dS]GSN-OtBu stands 86.1%; under Cbz-K(Boc)SQGGSN-OtBu, 86.2%.

In turn, Cbz-K(Boc)SQG[dA]SN-OtBu gave a step yield (coupling step) of 83%. Cbz-K(Boc)SQG[dL]SN-OtBu came in with a step yield (coupling step) of 88%. For the substance Cbz-K(Boc)SQ[dA]GSN-OtBu, the step yield (coupling step) was 80%. As for Cbz-K(Boc)SQ[dF]GSN-OtBu, for the setting “coupling step”, the step yield is recorded as 92.2%. Still for that read-out and setting: next, Cbz-K(Boc)SQ[dL]GSN-OtBu: 75.2%; Cbz-K(Boc)SQ[dS]GSN-OtBu: 92.2%. As to Cbz-SQGGSN-OtBu, where the note is “coupling step”, the step yield worked out at 83.9%. The same measure, in the same setting: under Cbz-SQG[dA]SN-OtBu stands 81%; under Cbz-SQG[dL]SN-OtBu, 87%. Cbz-SQ[dA]G-OH showed a step yield (late stage modification step) of 85%. With Cbz-SQ[dA]G-OtBu, the step yield (coupling step) was found to be 97%. The same measure, in the same setting: under Cbz-SQ[dA]GSN-OtBu stands 87%. In turn, Cbz-SQ[dF]G-OH showed a step yield (late stage modification step) of 98.4%. The substance Cbz-SQ[dF]G-OtBu returned a step yield (coupling step) of 45.2%. The same measure, in the same setting: under Cbz-SQ[dF]GSN-OtBu stands 86.2%.

The substance Cbz-SQ[dL]G-OH gave a step yield (late stage modification step) of 100%. Take Cbz-SQ[dL]G-OtBu: for the setting “coupling step”, the step yield is listed as 51.4%. The substance Cbz-SQ[dL]GSN-OtBu returned a step yield (coupling step) of 82.1%. For Cbz-SQ[dS]G-OH, the step yield (late stage modification step) was found to be 93.8%. Under “coupling step”, Cbz-SQ[dS]G-OtBu had a step yield of 68.4%. Turning to Cbz-SQ[dS]GSN-OtBu, for the setting “coupling step”, the step yield was determined as 83.7%. On the same count and under the same terms, under Cbz-[dA]K(Boc)SQG[dA]SN-OtBu stands 81%; under Cbz-[dA]K(Boc)SQ[dL]GSN-OtBu, 81.3%. For the substance “PEPTIDE1{[Glp].A.K.S.Q.G.[dA].S.N}$$$$V2.0”, the step yield (late stage modification step) was found to be 62%. On to “PEPTIDE1{[Glp].A.K.S.Q.[dA].G.S.N}$$$$V2.0”, for which the step yield (late stage modification step) is reported as 34%.

In the case of “PEPTIDE1{[Glp].[dA].K.S.Q.G.G.S.N}$$$$V2.0”, the step yield (late stage modification step) worked out at 68%. With [pGlu]AK(Boc)SQG[dA]SN-OtBu, the step yield (coupling step) was 91%.

Under “coupling step”, [pGlu]AK(Boc)SQG[dL]SN-OtBu showed a step yield of 80%. The substance [pGlu]AK(Boc)SQ[dA]GSN-OtBu gave a step yield (coupling step) of 80%. Same read-out and setting: under [pGlu]AK(Boc)SQ[dF]GSN-OtBu stands 92.4%; under [pGlu]AK(Boc)SQ[dL]GSN-OtBu, 97.6%.

The substance [pGlu]AK(Boc)SQ[dS]GSN-OtBu returned a step yield (coupling step) of 83.0%. In the case of [pGlu]AKSQG[dL]SN-OH, for the setting “late stage modification step”, the step yield worked out at 58%. Turning to [pGlu][dA]K(Boc)SQGGSN-OtBu, the step yield (coupling step) worked out at 78%. On the same count and under the same terms, under [pGlu][dA]K(Boc)SQG[dA]SN-OtBu stands 93%; under [pGlu][dA]K(Boc)SQ[dL]GSN-OtBu, 90.7%. For the substance [pGlu][dA]KSQG[dA]SN-OH, for the setting “late stage modification step”, the step yield is 34%.

These data come from patent publication US4229438A (Takeda Chemical Industries, Ltd., priority 1978, dated 1980).
